Source: patent US20090247540A1 (published 2009)
Results are given in words; binding and its absence hold for the method and conditions named. In cells and extracts the contact can be indirect. Some binding calls cover weakened binding; strength is not graded here.

By UniProt entry, the sequences of proteins in these tests, tags left out. Where a name states a change or a piece, a line headed by the entry shows the natural chain unless it says otherwise. Residues count along the entry.
UniProt P29317, residues 24-976: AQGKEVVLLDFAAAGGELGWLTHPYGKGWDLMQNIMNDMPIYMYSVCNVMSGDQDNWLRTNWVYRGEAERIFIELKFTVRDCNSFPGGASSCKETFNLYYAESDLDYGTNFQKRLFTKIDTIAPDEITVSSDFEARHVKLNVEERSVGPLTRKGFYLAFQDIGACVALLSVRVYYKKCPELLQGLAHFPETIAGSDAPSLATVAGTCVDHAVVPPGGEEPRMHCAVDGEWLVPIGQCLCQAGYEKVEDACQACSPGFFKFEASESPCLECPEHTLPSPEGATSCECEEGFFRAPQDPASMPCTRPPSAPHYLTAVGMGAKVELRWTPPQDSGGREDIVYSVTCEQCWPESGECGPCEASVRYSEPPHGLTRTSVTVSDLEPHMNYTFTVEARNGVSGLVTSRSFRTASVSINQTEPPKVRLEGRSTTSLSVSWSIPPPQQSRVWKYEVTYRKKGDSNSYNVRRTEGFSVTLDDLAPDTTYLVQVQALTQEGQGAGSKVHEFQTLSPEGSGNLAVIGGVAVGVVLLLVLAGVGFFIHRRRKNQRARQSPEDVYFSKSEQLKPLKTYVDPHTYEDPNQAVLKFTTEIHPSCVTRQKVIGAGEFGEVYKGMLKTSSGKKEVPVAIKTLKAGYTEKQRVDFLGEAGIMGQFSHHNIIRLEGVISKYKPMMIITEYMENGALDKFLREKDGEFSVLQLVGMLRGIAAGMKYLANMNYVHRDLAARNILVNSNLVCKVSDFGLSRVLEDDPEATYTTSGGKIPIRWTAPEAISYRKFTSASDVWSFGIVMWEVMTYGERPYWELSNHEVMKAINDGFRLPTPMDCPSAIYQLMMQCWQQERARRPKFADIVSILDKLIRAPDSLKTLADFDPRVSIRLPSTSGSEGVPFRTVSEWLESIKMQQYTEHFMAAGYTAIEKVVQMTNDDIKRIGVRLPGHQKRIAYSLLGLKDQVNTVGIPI
UniProt Q03145, residues 26-977: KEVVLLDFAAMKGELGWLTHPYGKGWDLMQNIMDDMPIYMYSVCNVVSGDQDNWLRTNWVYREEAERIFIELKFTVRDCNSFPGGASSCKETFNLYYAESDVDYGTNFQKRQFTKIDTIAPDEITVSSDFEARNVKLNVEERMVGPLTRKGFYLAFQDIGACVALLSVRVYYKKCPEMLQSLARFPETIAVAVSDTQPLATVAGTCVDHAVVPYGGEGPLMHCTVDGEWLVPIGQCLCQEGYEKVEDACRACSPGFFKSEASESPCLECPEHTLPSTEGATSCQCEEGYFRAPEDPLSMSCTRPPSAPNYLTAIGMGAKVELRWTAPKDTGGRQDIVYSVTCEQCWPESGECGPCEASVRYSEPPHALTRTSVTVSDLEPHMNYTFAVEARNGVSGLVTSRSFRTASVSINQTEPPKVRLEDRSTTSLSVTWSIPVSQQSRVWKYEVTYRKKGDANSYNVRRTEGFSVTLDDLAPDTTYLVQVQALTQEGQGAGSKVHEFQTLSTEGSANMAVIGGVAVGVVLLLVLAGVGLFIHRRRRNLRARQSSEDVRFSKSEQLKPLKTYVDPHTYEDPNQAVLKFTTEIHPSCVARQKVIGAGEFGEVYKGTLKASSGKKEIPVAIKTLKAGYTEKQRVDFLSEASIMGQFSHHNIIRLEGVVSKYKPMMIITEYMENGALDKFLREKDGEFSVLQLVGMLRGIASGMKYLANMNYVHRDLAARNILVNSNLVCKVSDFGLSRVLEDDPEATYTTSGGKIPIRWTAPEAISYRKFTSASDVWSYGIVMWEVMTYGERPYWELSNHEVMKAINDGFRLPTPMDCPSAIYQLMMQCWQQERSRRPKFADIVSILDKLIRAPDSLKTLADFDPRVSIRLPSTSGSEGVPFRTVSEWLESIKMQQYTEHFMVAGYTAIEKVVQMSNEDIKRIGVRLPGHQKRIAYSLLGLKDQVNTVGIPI
UniProt P20827: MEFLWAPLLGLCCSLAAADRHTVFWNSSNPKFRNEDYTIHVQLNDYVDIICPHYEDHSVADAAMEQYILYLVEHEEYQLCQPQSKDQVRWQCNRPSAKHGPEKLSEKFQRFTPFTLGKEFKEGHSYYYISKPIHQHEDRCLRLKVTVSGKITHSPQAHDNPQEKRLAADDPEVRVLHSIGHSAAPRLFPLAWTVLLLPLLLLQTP

Columns and labels:
[1] = target: EphA2 receptor of human cancer cells (PC-3, DU-145, lung cancer lines) (human) (UniProt P29317); experiment: pull-down from PC3 cell lysates with ephrinA1-Fc, anti-EphA2 blot
[2] = target: mouse EphA2 (primary keratinocytes) (mouse) (UniProt Q03145); experiment: pull-down from mouse keratinocyte lysates, blot for total EphA2
[3] = target: mouse EphA2 (primary keratinocytes) (mouse) (UniProt Q03145); experiment: pull-down from mouse keratinocyte lysates

Measured: binding

ephrin-A1-Fc (ephrin-A1 fused to the heavy chain of human IgG1) (from UniProt P20827 19-182) (Fc fusion)
binds: all assays above
